Reference: PubChem BioAssay AID493246 (Drosophila RNAi Screening Center, 2011)
The screen tested about 21,000 reagents; this is a random part of those that have a named target and a result. In the full data, 429 (2%) got an active call. 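Values are raw and not normalised between plates; calls rest on per-plate z-scores that were not deposited.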 Unmarked entries are inactive. Names joined by + are all predicted targets of the reagent. Reagent sequences are not shown. Not given: the amount of reagent, the time to read-out.

Test: 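Genes fly cells need to grow and stay alive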 (primary screen)
Cell system: Drosophila Kc and S2R+ cells
Reagent: long dsRNA against Drosophila genes
Measured: 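Raw, unnormalised count of remaining cells in each well; per-plate z-scores of cell number underlie the calls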
Reading the numbers: Kc cell number and S2R+ cell number: higher = more cells remaining
Call rule: 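Active when the per-plate z-score of cell number is 3 or more in the direction of fewer cells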

target	DRSC id	Kc cell number, rep 1	Kc cell number, rep 2	S2R+ cell number, rep 1	S2R+ cell number, rep 2
uncNacbeta	DRSC00326	1.49e6	1.55e6	1.10e6	1.27e6
Oscillin	DRSC03001	1.29e6	1.31e6	5.86e5	9.83e5
CG18480	DRSC01957	1.61e6	1.62e6	1.21e6	1.31e6
CG8750	DRSC11037	1.71e6	1.60e6	1.38e6	1.49e6
CG7094	DRSC03005	1.49e6	1.52e6	1.29e6	1.46e6
CG14273	DRSC02377	1.61e6	1.66e6	1.16e6	1.29e6
Mst89B	DRSC16748	1.20e6	1.28e6	1.20e6	1.38e6
CG7329	DRSC03046	1.69e6	1.71e6	1.20e6	1.34e6
CG31867	DRSC03338	1.73e6	1.73e6	1.19e6	1.36e6
CG42326	DRSC06483	1.60e6	1.74e6	1.38e6	1.52e6
CG42326	DRSC06484	1.53e6	1.68e6	1.27e6	1.46e6
Mst84Db	DRSC12542	1.50e6	1.63e6	1.33e6	1.37e6
Mst84Db	DRSC12598	1.46e6	1.61e6	1.26e6	1.33e6
Vps29	DRSC00666	1.31e6	1.31e6	9.97e5	9.09e5
CG32988	DRSC02692	1.57e6	1.67e6	1.22e6	1.42e6
CG32246	DRSC08115	1.64e6	1.67e6	1.08e6	1.29e6
Sesn	DRSC04101	1.40e6	1.52e6	1.34e6	1.32e6
Sesn	DRSC04102	1.66e6	1.88e6	1.46e6	1.52e6
Sesn	DRSC04103	1.83e6	1.90e6	1.24e6	1.29e6
PDCD-5	DRSC09955	1.48e6	1.67e6	1.41e6	1.56e6
CG5819	DRSC04520	1.48e6	1.74e6	1.40e6	4.70e5
CG1835	DRSC20560	1.43e6	1.44e6	1.04e6	1.14e6
CG15473	DRSC18056	1.55e6	1.52e6	1.05e6	1.21e6
CG8405	DRSC05599	5.02e5		7.44e5	
CG8405	DRSC07166	1.54e6	1.55e6	1.16e6	1.29e6
crb	DRSC16927	1.53e6	1.60e6	1.14e6	1.15e6

10 of these entries, reformatted.
target,DRSC id,"Kc cell number, rep 1","Kc cell number, rep 2","S2R+ cell number, rep 1","S2R+ cell number, rep 2"
CG14273,DRSC02377,1.61e6,1.66e6,1.16e6,1.29e6
Mst89B,DRSC16748,1.20e6,1.28e6,1.20e6,1.38e6
CG7329,DRSC03046,1.69e6,1.71e6,1.20e6,1.34e6
CG31867,DRSC03338,1.73e6,1.73e6,1.19e6,1.36e6
CG42326,DRSC06483,1.60e6,1.74e6,1.38e6,1.52e6
CG42326,DRSC06484,1.53e6,1.68e6,1.27e6,1.46e6
Mst84Db,DRSC12542,1.50e6,1.63e6,1.33e6,1.37e6
Mst84Db,DRSC12598,1.46e6,1.61e6,1.26e6,1.33e6
Vps29,DRSC00666,1.31e6,1.31e6,9.97e5,9.09e5
CG32988,DRSC02692,1.57e6,1.67e6,1.22e6,1.42e6

Next reagents follow:
target	DRSC id	Kc cell number, rep 1	Kc cell number, rep 2	S2R+ cell number, rep 1	S2R+ cell number, rep 2
CG14671	DRSC12257	1.62e6	1.83e6	1.23e6	1.27e6
snf	DRSC18835	5.24e5		6.66e5	
Idgf4	DRSC18675	1.50e6	1.42e6	1.07e6	1.18e6
CG8086	DRSC03078	1.39e6	1.65e6	4.39e5	3.06e5
CG8086	DRSC03079	1.49e6	1.59e6	1.22e6	1.33e6
Cand1	DRSC01992	1.22e6	1.25e6	1.18e6	1.25e6
Rel	DRSC16819	1.66e6	1.79e6	1.49e6	1.49e6
CG14234	DRSC19317	1.31e6	1.80e6	1.16e6	1.28e6
CG14234	DRSC19589	1.53e6	1.55e6	1.04e6	1.19e6
dbf	DRSC02570	1.68e6	1.70e6	1.26e6	1.52e6
RpS29 + snoRNA:Psi18S-1275	DRSC16433	1.14e6	1.19e6	8.56e5	9.67e5
CG2818	DRSC00540	1.40e6	1.41e6	1.18e6	1.27e6
tbc	DRSC20540	1.45e6	1.51e6	8.59e5	9.48e5
zetaTry	DRSC07720	1.52e6	1.49e6	1.17e6	1.29e6
Arl2	DRSC14117	1.46e6	1.55e6	1.22e6	1.39e6
CG42404	DRSC15558	1.41e6	1.46e6	1.17e6	1.29e6
CG8924	DRSC20122	3.83e5		6.57e5	
CG13962	DRSC02304	1.58e6	1.63e6	1.24e6	2.72e5
MetRS-m	DRSC16443	1.51e6	1.56e6	1.15e6	1.24e6
MetRS-m	DRSC16515	1.12e6	1.04e6	8.57e5	9.23e5
SP2353	DRSC07545	1.54e6	1.58e6	1.08e6	1.18e6
CG9692	DRSC11091	1.22e6	1.36e6	1.31e6	1.35e6
rumpel	DRSC18436	1.54e6	1.53e6	1.13e6	1.27e6
CG10822	DRSC06005	1.52e6	1.58e6	1.13e6	1.30e6
Ubc87F	DRSC16513	1.33e6	1.46e6	1.17e6	1.31e6
CG45263	DRSC12682	1.44e6	1.56e6	1.04e6	1.27e6
CG45263	DRSC14360	1.53e6	1.63e6	1.25e6	1.38e6
CG45263	DRSC14361	1.45e6	1.51e6	1.32e6	1.41e6
CG45263	DRSC14363	1.55e6	1.65e6	1.22e6	1.33e6
CG32833	DRSC04596	1.36e6	1.43e6	1.11e6	1.23e6
RpL22-like	DRSC04582	1.61e6	1.66e6	1.24e6	1.41e6
CG34382	DRSC08999	1.28e6	1.43e6	1.11e6	1.25e6
CG34382	DRSC10166	1.37e6	1.61e6	1.29e6	1.31e6
CG34382	DRSC10167	1.47e6	1.89e6	1.20e6	1.25e6
